Test results: US6489322B1, “Amidine derivatives as inhibitors of nitric oxide synthase” (AstraZeneca AB, priority 1997, dated 2002)
Some entries share one result that the patent states for a list of compounds. At least one compound was matched to its structure with a doubt left.

Biological target: T1, neuronal nitric oxide synthase (Rattus norvegicus, UniProt P29476)
T1 construct: Cerebellar or hippocampal supernatant is prepared by homogenisation; from tissue; host or cells: cerebellum or hippocampus of male Sprague-Dawley rat
Assay: Screen for neuronal nitric oxide synthase inhibiting activity (3H-L-arginine to 3H-L-citrulline conversion)
Format: biochemical
Conditions: for IC50: enzyme from rat hippocampus or cerebellum, read-out: IC50 values for inhibition of neuronal nitric oxide synthase; for selectivity for inhibition of the neuronal isoform of the enzyme: neuronal versus endothelial nitric oxide synthase screens

Compound | IC50 | selectivity for inhibition of the neuronal isoform of the enzyme
CN1CCOc2ccc(NC(=N)c3cccs3)cc2C1.Cl.Cl [Example 1, N-(4-Methyl-2,3,4,5-tetrahydro-1,4-benzoxazepin-7-yl)-2-thiophenecarboximidamide dihydrochloride] | < 10 µM | good selectivity
CCN1CCOc2ccc(NC(=N)c3cccs3)cc2C1.Cl.Cl [Example 2, N-(4-Ethyl-2,3,4,5-tetrahydro-1,4-benzoxazepin-7-yl)-2-thiophenecarboximidamide dihydrochloride] | < 10 µM | good selectivity
N=C(Nc1ccc2c(c1)CNCCO2)c1ccsc1 [Example 5, N-(2,3,4,5-Tetrahydro-1,4-benzoxazepin-7-yl)-3-thiophenecarboximidamide] | < 10 µM | good selectivity

Other lines, results leading:

IC50 | selectivity for inhibition of the neuronal isoform of the enzyme | Compound
< 10 µM | good selectivity | Cl.N=C(Nc1ccc2c(c1)CNCCO2)c1cccs1 [Example 7, N-(2,3,4,5-Tetrahydro-1,4-benzoxazepin-7-yl)-2-thiophenecarboximidamide hydrochloride]
< 10 µM | good selectivity | CN1CCOc2ccc(NC(=N)c3ccsc3)cc2C1 [Example 6, N-(4-Methyl-2,3,4,5-tetrahydro-1,4-benzoxazepin-7-yl)-3-thiophenecarboximidamide]
